Source: patent EP0497988A1, “ANTIVIRAL AGENT” (DAINIPPON INK AND CHEMICALS, INC., priority 1990, dated 1992)
At least one read-out could not be matched to a standard name with certainty.

System: MT-4 Cell
Test: Cell toxicity to mock-infected MT-4 cells by MTT method
Format: cell-based
Settings: 5 days
Method: Test Method: MMT (the tetrazolium assay) method Cell: MT-4 Cell Virus: HTLV-IIIB (Infection : 3 x 10⁵ plaque forming units (PFU)/ml) MT-4 cells were suspended in a culture medium at 2 x 10⁵ cells/ml and infected with HIV-IIIB at a multiplicity of infection of 0.01. Immediately after infection, 100µl of cell suspension was placed into microtiter tray wells containing various concentrations of the test samples. At the same time, the mock-infected cells were also cultured together with the samples in order to assess the cell toxicity of the test samples to the MT-4 cell. They were cultured in a CO₂-gas incubator at 37°C for 5 days, and the number of viable cells were determined by the MTT method. Antiviral activity is expressed by EC₅₀ (50% effective concentration), the concentration at which the agent protects 50% of the cells from injury by HIV infection, and cell toxicity by CC₅₀ (50% cell toxicity concentration), the concentration at which 50% of the cells are injured by the agent. Selectivity is measured by a selectivity index (S.I), which is expressed by CC₅₀/EC₅₀ (R. Pauwels, et al., J. of […], vol. 20, 1988, pp. 309-321).

Work on “sodium salt of dodecyl 4-galactosyl β-D-lactoside sulfate [GTS-1]” yielded a CC₅₀ of 730 µg/mL.
